# Test results from article PMC8897425.
# Protein sequences, listed by entry. Tags and fused reporters are not part of them.
# UniProt Q8N6T7: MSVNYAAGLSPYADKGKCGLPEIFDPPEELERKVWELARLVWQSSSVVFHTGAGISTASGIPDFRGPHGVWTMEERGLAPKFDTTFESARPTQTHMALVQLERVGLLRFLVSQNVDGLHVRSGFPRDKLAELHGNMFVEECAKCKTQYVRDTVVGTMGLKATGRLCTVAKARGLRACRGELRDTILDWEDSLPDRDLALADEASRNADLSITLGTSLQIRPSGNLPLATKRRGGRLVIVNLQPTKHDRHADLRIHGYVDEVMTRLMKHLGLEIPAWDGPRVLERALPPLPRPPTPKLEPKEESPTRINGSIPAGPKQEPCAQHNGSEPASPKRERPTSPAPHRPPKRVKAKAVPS
# Results are given in words; binding and its absence hold for the method and conditions named. Binding seen in cells or lysates may run through a third protein. Some binding calls cover weakened binding; strength is not graded here. For some assays here: Tags and fused reporters may be left off the sequences shown.
# What was measured:
# [1] = molecular target: T1, FLAG-tagged myocardin-related transcription factor A (MRTF-A) (UniProt Q969V6); experiment: co-IP; HEK293 cells transfected with FLAG-MRTF-A and Myc-SIRT6; whole-cell lysates (50 mM Tris pH 7.4, 150 mM NaCl, 1% Triton X-100); immunoprecipitation with anti-FLAG (M2) beads overnight, elution with 3X FLAG peptide, Western blot
# T1 sequence: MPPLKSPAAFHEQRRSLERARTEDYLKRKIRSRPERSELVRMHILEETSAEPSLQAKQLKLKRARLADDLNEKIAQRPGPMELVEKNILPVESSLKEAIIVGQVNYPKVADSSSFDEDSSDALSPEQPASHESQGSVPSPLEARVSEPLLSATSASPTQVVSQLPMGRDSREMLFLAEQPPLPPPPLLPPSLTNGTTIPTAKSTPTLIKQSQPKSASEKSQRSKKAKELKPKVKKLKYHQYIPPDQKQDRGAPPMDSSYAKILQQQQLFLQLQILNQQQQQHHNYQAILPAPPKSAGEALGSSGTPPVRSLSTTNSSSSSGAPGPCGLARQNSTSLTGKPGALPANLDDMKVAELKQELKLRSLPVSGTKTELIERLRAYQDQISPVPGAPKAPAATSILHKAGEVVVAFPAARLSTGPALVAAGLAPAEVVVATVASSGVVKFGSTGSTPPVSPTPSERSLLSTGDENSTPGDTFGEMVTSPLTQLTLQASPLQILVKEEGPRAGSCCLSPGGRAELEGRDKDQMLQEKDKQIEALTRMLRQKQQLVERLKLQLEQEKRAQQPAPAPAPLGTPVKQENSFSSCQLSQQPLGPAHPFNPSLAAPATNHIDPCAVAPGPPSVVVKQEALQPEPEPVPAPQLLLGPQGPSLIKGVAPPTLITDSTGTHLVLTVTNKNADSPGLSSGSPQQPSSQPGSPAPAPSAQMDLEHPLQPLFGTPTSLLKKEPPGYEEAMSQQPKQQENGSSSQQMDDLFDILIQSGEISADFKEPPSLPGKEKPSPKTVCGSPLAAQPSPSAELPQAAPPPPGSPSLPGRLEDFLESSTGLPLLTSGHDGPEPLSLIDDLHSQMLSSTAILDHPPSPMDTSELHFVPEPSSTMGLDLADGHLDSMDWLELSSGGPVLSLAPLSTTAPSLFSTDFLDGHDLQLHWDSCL
# [2] = molecular target: T2, endogenous MRTF-A (human (endogenous in EAhy926 and HAEC)) (UniProt Q969V6); experiment: co-IP; endogenous proteins in EAhy926 and HAEC cell lysates; lysates incubated with specific antibodies at 4 °C overnight, Protein A/G-plus agarose beads, Western blot
# T2 sequence: T1 sequence
Substance,binding [1],binding [2]
Myc-tagged SIRT6 (from UniProt Q8N6T7 1-355) (enzyme),binds,–
endogenous SIRT6 (from UniProt Q8N6T7 1-355) (enzyme),–,binds
